Test results: the supplement of paper PMC6411743
± gives the standard deviation of the averaged measurements. The list shows a part of the results.

Experiments:
Test in all cases: NP40-soluble protein abundance relative to vehicle (solubility fold change) (ratio); higher = more soluble protein in presence of GTP
[1] = target: T1, H3BT22 and related entries (UniProt Q9Y5N6)
T1 sequence (whole entry): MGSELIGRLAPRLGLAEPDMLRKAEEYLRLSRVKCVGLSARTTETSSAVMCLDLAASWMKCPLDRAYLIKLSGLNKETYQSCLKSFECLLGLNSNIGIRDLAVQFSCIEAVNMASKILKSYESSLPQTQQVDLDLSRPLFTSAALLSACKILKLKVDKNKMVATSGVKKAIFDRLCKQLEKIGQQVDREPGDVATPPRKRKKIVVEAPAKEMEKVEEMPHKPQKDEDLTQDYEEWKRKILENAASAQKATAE
How it was run: (§1)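 Eight concentrations, 0.1 to 10 mM, were tested on Jurkat crude lysate for 10 min at room temperature and then 3 min at 37 °C, in three independent experiments. The lysate was solubilised with 0.8% NP40 and benzonase, ultracentrifuged, and the supernatant TMT-labelled for LC-MS/MS. Each value is the fold change against the detergent-processed vehicle in its own replicate, from vsn-normalised intensities.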

[2] = target: T2, H7C4X9 and related entries (UniProt Q9ULU4)
T2 sequence (whole entry): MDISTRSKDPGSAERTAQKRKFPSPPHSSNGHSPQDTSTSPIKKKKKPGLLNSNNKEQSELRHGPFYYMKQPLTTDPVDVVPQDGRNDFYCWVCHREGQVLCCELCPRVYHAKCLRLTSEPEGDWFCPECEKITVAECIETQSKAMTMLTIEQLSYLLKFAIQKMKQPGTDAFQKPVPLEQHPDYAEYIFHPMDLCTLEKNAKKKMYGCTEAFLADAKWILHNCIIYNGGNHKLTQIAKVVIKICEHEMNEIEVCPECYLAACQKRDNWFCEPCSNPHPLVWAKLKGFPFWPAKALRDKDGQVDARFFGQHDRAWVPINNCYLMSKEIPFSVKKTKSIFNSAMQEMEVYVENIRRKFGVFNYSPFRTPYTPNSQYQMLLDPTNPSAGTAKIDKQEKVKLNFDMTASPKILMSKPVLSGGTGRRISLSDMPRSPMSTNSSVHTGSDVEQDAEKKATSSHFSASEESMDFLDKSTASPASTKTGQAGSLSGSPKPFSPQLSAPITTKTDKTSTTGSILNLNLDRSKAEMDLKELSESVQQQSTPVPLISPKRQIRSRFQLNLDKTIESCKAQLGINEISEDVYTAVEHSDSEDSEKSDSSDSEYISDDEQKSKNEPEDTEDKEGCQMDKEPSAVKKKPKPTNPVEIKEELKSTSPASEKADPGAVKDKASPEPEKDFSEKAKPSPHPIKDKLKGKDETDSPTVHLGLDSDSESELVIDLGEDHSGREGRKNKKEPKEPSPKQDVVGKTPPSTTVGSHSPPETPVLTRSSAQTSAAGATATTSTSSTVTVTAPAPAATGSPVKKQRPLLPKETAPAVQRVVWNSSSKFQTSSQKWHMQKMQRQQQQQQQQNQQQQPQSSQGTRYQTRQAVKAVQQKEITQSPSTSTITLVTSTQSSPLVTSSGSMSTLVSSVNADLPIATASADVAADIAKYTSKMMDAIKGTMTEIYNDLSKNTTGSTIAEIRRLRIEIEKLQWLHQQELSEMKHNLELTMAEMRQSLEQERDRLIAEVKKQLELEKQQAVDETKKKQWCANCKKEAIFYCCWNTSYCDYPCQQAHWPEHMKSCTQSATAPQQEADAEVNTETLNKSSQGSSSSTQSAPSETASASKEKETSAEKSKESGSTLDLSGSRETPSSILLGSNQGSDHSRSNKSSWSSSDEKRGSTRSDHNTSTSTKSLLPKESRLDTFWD
How it was run: as §1

[3] = target: T3, J3KPD3 and related entries (UniProt Q9Y580)
T3 sequence (whole entry): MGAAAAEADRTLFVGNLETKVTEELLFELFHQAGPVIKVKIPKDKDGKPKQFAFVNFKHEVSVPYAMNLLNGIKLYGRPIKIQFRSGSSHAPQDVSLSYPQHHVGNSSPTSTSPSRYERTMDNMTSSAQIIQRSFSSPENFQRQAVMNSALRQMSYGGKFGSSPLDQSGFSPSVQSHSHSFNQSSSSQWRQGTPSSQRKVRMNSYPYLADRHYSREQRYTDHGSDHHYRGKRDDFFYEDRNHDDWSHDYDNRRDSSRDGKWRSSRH
How it was run: as §1

[4] = target: T4, J3KPT4 and related entries (UniProt Q9H4I3)
T4 sequence (whole entry): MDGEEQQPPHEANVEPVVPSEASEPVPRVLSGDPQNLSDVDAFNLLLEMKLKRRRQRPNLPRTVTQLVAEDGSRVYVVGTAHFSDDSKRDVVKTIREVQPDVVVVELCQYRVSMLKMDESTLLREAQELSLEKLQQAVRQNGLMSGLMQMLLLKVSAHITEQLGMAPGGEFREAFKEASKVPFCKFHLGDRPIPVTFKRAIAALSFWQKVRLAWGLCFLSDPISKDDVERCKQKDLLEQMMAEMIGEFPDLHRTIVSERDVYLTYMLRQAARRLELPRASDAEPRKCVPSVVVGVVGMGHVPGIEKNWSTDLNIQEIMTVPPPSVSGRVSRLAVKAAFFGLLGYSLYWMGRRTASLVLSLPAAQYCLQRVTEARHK
How it was run: as §1

[5] = target: T5, J3KSZ8 and related entries (UniProt Q68DK7)
T5 sequence (whole entry): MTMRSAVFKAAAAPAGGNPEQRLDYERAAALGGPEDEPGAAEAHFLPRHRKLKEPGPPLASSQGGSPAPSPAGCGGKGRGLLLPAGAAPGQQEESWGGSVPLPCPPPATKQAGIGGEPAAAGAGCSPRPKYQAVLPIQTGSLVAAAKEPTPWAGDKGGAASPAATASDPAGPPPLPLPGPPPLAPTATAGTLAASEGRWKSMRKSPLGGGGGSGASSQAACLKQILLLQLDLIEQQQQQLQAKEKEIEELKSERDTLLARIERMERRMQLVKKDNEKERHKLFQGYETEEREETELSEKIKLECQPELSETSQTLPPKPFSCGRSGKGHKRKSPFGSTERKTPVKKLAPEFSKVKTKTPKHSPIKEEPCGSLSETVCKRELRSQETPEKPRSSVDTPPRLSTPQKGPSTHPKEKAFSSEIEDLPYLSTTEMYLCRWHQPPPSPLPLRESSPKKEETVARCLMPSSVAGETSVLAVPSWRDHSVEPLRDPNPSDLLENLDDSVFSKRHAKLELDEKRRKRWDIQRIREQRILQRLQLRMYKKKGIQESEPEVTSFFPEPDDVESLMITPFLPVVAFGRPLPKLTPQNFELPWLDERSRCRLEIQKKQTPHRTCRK
How it was run: as §1

[6] = target: T6, K7EL81 and related entries (UniProt Q9BZL4)
T6 sequence (whole entry): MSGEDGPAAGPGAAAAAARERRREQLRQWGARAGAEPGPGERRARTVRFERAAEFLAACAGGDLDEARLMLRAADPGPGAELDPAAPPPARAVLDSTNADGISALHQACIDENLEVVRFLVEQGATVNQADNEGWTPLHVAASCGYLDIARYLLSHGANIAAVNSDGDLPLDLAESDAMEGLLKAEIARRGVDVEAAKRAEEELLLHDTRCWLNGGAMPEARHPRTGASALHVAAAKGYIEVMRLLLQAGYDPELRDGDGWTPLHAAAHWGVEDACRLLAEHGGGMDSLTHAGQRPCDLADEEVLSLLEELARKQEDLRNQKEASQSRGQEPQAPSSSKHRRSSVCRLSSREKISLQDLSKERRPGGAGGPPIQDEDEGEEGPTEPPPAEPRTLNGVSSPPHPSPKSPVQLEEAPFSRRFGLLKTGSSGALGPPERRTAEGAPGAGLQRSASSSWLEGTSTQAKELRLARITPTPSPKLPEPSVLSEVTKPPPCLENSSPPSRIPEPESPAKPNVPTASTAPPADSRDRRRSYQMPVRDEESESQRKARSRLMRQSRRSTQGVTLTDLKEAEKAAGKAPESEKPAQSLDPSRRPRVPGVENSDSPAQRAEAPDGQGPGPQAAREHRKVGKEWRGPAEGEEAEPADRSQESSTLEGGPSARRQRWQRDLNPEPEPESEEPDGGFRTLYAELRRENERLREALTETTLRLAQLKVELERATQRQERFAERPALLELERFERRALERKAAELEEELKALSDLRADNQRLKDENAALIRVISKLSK
How it was run: as §1

Nc1nc2c(ncn2[C@@H]2O[C@H](COP(=O)(O)OP(=O)(O)OP(=O)(O)O)[C@@H](O)[C@H]2O)c(=O)[nH]1 [guanosine triphosphate]
NP40-soluble protein abundance ([1]; concentration: 0.1mM): 0.923 ± 0.056 | NP40-soluble protein abundance ([1]; concentration: 0.5mM): 0.922 ± 0.05 | NP40-soluble protein abundance ([1]; concentration: 1mM): 0.976 ± 0.095 | NP40-soluble protein abundance ([1]; concentration: 2mM): 0.935 ± 0.12 | NP40-soluble protein abundance ([1]; concentration: 4mM): 0.919 ± 0.12 | NP40-soluble protein abundance ([1]; concentration: 6mM): 0.945 ± 0.11 | NP40-soluble protein abundance ([1]; concentration: 8mM): 0.936 ± 0.049 | NP40-soluble protein abundance ([1]; concentration: 10mM): 0.957 ± 0.12 | NP40-soluble protein abundance ([2]; concentration: 0.1mM): 1.05 ± 0.083 | NP40-soluble protein abundance ([2]; concentration: 0.5mM): 1.09 ± 0.11 | NP40-soluble protein abundance ([2]; concentration: 1mM): 1.14 ± 0.1 | NP40-soluble protein abundance ([2]; concentration: 2mM): 1.21 ± 0.081 | NP40-soluble protein abundance ([2]; concentration: 4mM): 1.28 ± 0.11 | NP40-soluble protein abundance ([2]; concentration: 6mM): 1.28 ± 0.092 | NP40-soluble protein abundance ([2]; concentration: 8mM): 1.31 ± 0.13 | NP40-soluble protein abundance ([2]; concentration: 10mM): 1.33 ± 0.15 | NP40-soluble protein abundance ([3]; concentration: 0.1mM): 1.1 ± 0.1 | NP40-soluble protein abundance ([3]; concentration: 0.5mM): 1.07 ± 0.066 | NP40-soluble protein abundance ([3]; concentration: 1mM): 1.12 ± 0.18 | NP40-soluble protein abundance ([3]; concentration: 2mM): 1.21 ± 0.23 | NP40-soluble protein abundance ([3]; concentration: 4mM): 1.33 ± 0.35 | NP40-soluble protein abundance ([3]; concentration: 6mM): 1.33 ± 0.29 | NP40-soluble protein abundance ([3]; concentration: 8mM): 1.35 ± 0.28 | NP40-soluble protein abundance ([3]; concentration: 10mM): 1.35 ± 0.31 | NP40-soluble protein abundance ([4]; concentration: 0.1mM): 1.03 ± 0.03 | NP40-soluble protein abundance ([4]; concentration: 0.5mM): 1.01 ± 0.027 | NP40-soluble protein abundance ([4]; concentration: 1mM): 0.984 ± 0.058 | NP40-soluble protein abundance ([4]; concentration: 2mM): 0.973 ± 0.056 | NP40-soluble protein abundance ([4]; concentration: 4mM): 0.953 ± 0.042 | NP40-soluble protein abundance ([4]; concentration: 6mM): 0.989 ± 0.024 | NP40-soluble protein abundance ([4]; concentration: 8mM): 0.916 ± 0.036 | NP40-soluble protein abundance ([4]; concentration: 10mM): 0.906 ± 0.099 | NP40-soluble protein abundance ([5]; concentration: 0.1mM): 1.02 ± 0.068 | NP40-soluble protein abundance ([5]; concentration: 0.5mM): 1.02 ± 0.069 | NP40-soluble protein abundance ([5]; concentration: 1mM): 1.12 ± 0.15 | NP40-soluble protein abundance ([5]; concentration: 2mM): 1.19 ± 0.13 | NP40-soluble protein abundance ([5]; concentration: 4mM): 1.27 ± 0.26 | NP40-soluble protein abundance ([5]; concentration: 6mM): 1.3 ± 0.18 | NP40-soluble protein abundance ([5]; concentration: 8mM): 1.4 ± 0.36 | NP40-soluble protein abundance ([5]; concentration: 10mM): 1.48 ± 0.41 | NP40-soluble protein abundance ([6]; concentration: 0.1mM): 0.965 ± 0.022 | NP40-soluble protein abundance ([6]; concentration: 0.5mM): 0.917 ± 0.038 | NP40-soluble protein abundance ([6]; concentration: 1mM): 0.986 ± 0.035 | NP40-soluble protein abundance ([6]; concentration: 2mM): 0.964 ± 0.052 | NP40-soluble protein abundance ([6]; concentration: 4mM): 0.987 ± 0.035 | NP40-soluble protein abundance ([6]; concentration: 6mM): 0.973 ± 0.06 | NP40-soluble protein abundance ([6]; concentration: 8mM): 0.981 ± 0.021 | NP40-soluble protein abundance ([6]; concentration: 10mM): 1.03 ± 0.043
